The values below come from paper PMC9060465 (Proceedings of the National Academy of Sciences of the …, 2022).

Amino acid sequences for entries named in this document (tags omitted). Residues count along the entry.
UniProt P43220, residues 24-463: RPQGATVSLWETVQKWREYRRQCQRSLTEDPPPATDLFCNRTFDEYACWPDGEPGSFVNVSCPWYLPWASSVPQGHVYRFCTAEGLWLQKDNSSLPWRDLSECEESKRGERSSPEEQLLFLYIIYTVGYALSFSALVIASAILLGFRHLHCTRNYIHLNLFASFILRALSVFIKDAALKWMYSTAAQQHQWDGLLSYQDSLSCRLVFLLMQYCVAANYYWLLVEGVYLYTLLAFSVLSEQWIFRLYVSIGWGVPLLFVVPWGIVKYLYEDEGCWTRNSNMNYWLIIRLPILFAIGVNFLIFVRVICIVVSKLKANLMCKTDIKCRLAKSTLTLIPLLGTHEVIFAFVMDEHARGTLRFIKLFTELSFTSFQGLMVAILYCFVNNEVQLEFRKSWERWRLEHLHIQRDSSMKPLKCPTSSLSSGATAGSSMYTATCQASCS
UniProt P49407: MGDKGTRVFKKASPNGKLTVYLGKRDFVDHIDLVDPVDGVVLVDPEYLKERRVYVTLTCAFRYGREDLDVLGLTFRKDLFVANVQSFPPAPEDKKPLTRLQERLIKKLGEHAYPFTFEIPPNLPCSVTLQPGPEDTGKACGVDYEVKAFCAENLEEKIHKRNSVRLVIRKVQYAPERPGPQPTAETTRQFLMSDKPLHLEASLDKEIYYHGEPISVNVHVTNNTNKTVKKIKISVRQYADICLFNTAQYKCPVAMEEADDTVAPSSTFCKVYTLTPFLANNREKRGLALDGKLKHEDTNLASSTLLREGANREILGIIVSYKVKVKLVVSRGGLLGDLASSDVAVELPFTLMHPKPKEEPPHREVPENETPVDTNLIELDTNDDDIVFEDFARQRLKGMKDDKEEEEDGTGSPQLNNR

Results are given in words; binding and its absence hold for the method and conditions named. In cells and extracts the contact can be indirect. Some binding calls cover weakened binding; strength is not graded here.

This assay has as its target GLP-1R of the NanoBRET β-arrestin 1 recruitment assay (human) (UniProt P43220). As to the kind of experiment: FRET or BRET; NanoBRET β-arrestin 1 recruitment to the GLP-1R in cells, induced by GLP-1, tirzepatide, TZPΔC20, TZPΔC20,Y1H; exactly as in ref. 10. (In general: Bioluminescence resonance energy transfer reports proximity on the nanometre scale.)

Take “β-arrestin 1 (NanoBRET recruitment assay) (from UniProt P49407 1-418)”: the binding result is reported as “binds”.
